The values below come from PubChem BioAssay AID493014 (National Center for Advancing Translational Sciences (NCATS), 2011).

The other results are listed elsewhere or left out. Further columns of the screen follow, without active or inactive calls. The list favours compounds with an active or inconclusive main result. Potencies come from curve fits of mixed quality, noted in brackets.

A short description of this experiment: qHTS Assay to Find Inhibitors of Chronic Active B-Cell Receptor Signaling. The settings on record: ABC-DLBCL IkBa-CBG/CBR reporter, luminescence ratio (green luciferase fused to IkBa over red control in TMD8 lymphoma cells), 4 h. In a few lines: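 Compounds up to 46 uM were incubated four hours with TMD8 cells whose green CBG68 luciferase is fused to IkappaBalpha; red CBR luminescence normalised the signal, and concentration-effect curves were fitted to fusion, red and ratio data.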

Where [1] appears, read: measured here: CBR red luminescence, cell number.
[2] abbreviates: measured here: IkBa-CBG green luminescence.

`COc1cc2c(cc1NC(=O)C(C)OC(=O)c1ccc(S(=O)(=O)Nc3ccccc3Cl)cc1)oc1ccccc12` (stereo not given): under setting [1], the AC50 was 20 µM [falling, partial curve, poor fit].

In the case of `O=C(Nc1ccccc1C(F)(F)F)N1CCN(c2ccc3nnc(-c4ccc(F)cc4)n3n2)CC1`, the AC50 under setting [1] was 11.2 µM [falling, single point].

Consider `CCn1c(CCCOc2ccc(Cl)cc2Cl)nnc1SCC(=O)Nc1cc(F)ccc1C`, for which the AC50 under setting [1] is 29.1 µM [falling, single point].

`N#Cc1c(NC(=O)CSc2n[nH]c(Cc3ccccc3)n2)oc(-c2ccccc2)c1-c1ccccc1`: the AC50 under setting [1] was 28.2 µM [falling, single point].

As for `O=C(CCC1CCCN(C(=O)c2ccoc2)C1)NCc1ccc(F)c(F)c1` (stereo not given), the AC50 under setting [1] is 35.5 µM [rising, single point].

Consider `NC(=O)c1ccccc1NC(=O)COc1ccc2c(c1)OCO2`, for which, under setting [1], the AC50 is 14.1 µM [falling, single point].

On to `CCCc1cc(=O)oc2c(CN3CCCC3)c(O)ccc12`, for which the AC50 under setting [1] is 3.16 µM [rising, full curve, poor fit].

For `CN(C)S(=O)(=O)c1cccc(-c2nn(-c3ccccc3)cc2/C=C2\SC(=S)NC2=O)c1`, under setting [1], the AC50 was 0.517 µM [rising, full curve].

On to `Cc1ccc(OCC(=O)NCCO)c(Br)c1`, for which the concentration at half-maximal activity (AC50) runs as follows: under setting [1], 35.5 µM [falling, single point]; under setting [2], 35.5 µM [rising, partial curve, poor fit].

Regarding `Cc1nc(SCC(=O)c2cc3ccccc3oc2=O)c(C#N)c(C)c1C(=O)Nc1ccccc1`, the AC50 under setting [1] is 17.8 µM [falling, partial curve, poor fit].

On to `NS(=O)(=O)c1cccc(NC(=O)c2cccc(Oc3ccccc3)c2)c1`, for which the AC50 under setting [1] was 20 µM [rising, partial curve, poor fit].

Turning to `O=C(Nc1ccc2[nH]c(=S)sc2c1)Nc1ccccc1F`, the AC50 under setting [1] is 10 µM [falling, partial curve].

Consider `Cn1c(=O)oc2cc(S(=O)(=O)Nc3ccc(O)cc3)ccc21`, for which the AC50 under setting [1] was 6.31 µM [falling, single point].

For the molecule `O=C1c2oc3ccc(Cl)cc3c(=O)c2C(c2cccc(Br)c2)N1CCO` (stereo not given), the AC50 under setting [1] is 15.8 µM [falling, single point].

Regarding `O=C1CC(NNc2ccccc2)C(=O)N1c1ccccc1` (stereo not given), under setting [1], the concentration at half-maximal activity (AC50) is 14.6 µM [falling, partial curve, poor fit].

On to `O=C(CSc1n[nH]c(-c2ccccc2)n1)N1CCOCC1`, for which the AC50 under setting [1] is 35.5 µM [falling, single point].

For the molecule `CCCCN1/C(=C/c2cccc[n+]2C)Sc2cc(NC(C)=O)ccc21`, the AC50 under setting [1] was 12.6 µM [rising, single point].

In the case of `CCCCOc1ccc(/C(O)=C(\C#N)c2nc3ccccc3[nH]2)cc1`, under setting [1], the AC50 was 17.8 µM [rising, partial curve, poor fit].

On to `O=C(O)CCCCCN1C(=O)CSC1=S`, for which, under setting [1], the AC50 is 0.631 µM [falling, full curve].

Turning to `CC(C)(C)C(=O)NNC(=O)c1cnccn1`, the AC50 under setting [1] is 11.2 µM [rising, single point].

In the case of `NC(=O)c1nc(C2CCCCC2)nc2c1[nH]c(=O)n2-c1ccc(F)cc1`, the AC50 under setting [1] is 3.16 µM [falling, partial curve, poor fit].

As to `O=C(Nc1nnc(S(=O)(=O)N2CCOCC2)s1)c1ccc(F)cc1`, the AC50 under setting [1] is 1.58 µM [rising, full curve].

`O=C(CNCc1ccc(Cl)cc1)Nc1ccc(C(=O)N2CCCCCC2)cc1`: the half-maximal activity concentration (AC50) under setting [1] is 11.2 µM [falling, partial curve].

Regarding `COc1ccccc1OC(=O)c1cc2ccccc2oc1=O`, under setting [1], the half-maximal activity concentration (AC50) is 12.6 µM [rising, partial curve, poor fit].

For the molecule `O=C(CNS(=O)(=O)c1ccccc1)NCc1ccccn1`, the half-maximal activity concentration (AC50) under setting [1] is 5.8 µM [falling, full curve].

In the case of `CCn1c2ccccc2c2cc(NC(=O)COC(=O)c3ccc(O)cc3)ccc21`, under setting [1], the AC50 is 1.84 µM [rising, partial curve, poor fit].

Consider `O=C(/C=C/c1ccc2c(c1)OCO2)NCc1ccco1`, for which the AC50 under setting [1] is 20.6 µM [falling, single point].

Turning to `COc1cccc(NC(=O)COC(=O)CNC(=O)C2CCCCC2)c1`, the AC50 under setting [1] is 14.6 µM [rising, partial curve, poor fit].

Consider `Cc1c(F)cccc1NS(=O)(=O)c1ccc2c(c1)c(C)cc(=O)n2C`, for which the AC50 under setting [1] was 14.1 µM [rising, single point].

Take `CC(C)(C)c1ccc(-c2nnc(SCCC#N)n2C2CCCC2)cc1`: the AC50 under setting [1] was 29.1 µM [falling, single point].

Take `COc1ccc(C(=O)Nc2n[nH]c(-c3ccncc3)n2)cc1`: under setting [1], the AC50 is 7.08 µM [falling, full curve].

For `O=C(NCC(c1ccco1)N1CCCC1)c1cccc(S(=O)(=O)Nc2ccc(Br)cc2)c1` (stereo not given), the AC50 under setting [1] is 14.1 µM [falling, partial curve, poor fit].

Take `Cc1cc(C2=NNC(=Nc3ccccc3)SC2)c(C)n1C`: the AC50 under setting [1] is 25.1 µM [falling, single point].

Regarding `CCN(C(=O)COC(=O)c1oc2ccc(OC)cc2c1C)C1CCS(=O)(=O)C1` (stereo not given), under setting [1], the AC50 is 3.66 µM [falling, partial curve, poor fit].

With `CN(CC(=O)Nc1ccccc1C(F)(F)F)C(=O)CCc1nc2sc3c(c2c(=O)[nH]1)CCCC3`, under setting [1], the AC50 was 5.62 µM [rising, partial curve, poor fit].

With `COc1cc(CC(=O)OCC(=O)c2c[nH]c3ccccc23)cc(OC)c1OC`, under setting [2], the AC50 was 18.4 µM [falling, single point].

`COC(=O)c1c(NC(=O)COC(=O)[C@@H](NS(=O)(=O)c2ccc(C)cc2)C(C)C)sc2c1CCC2`: under setting [1], the AC50 was 2.31 µM [falling, full curve].

In the case of `COc1cccc(C(=O)Oc2c(Br)cc(Br)cc2/C=N/NC(=O)c2cc(C)[nH]n2)c1`, the AC50 under setting [1] is 3.98 µM [falling, full curve, poor fit].

In the case of `O=C(CCCC(=O)N(c1ccc(F)cc1)C(C(=O)NC1CCCC1)c1ccc(O)cc1)Nc1ccccn1` (stereo not given), under setting [1], the AC50 was 17.8 µM [falling, partial curve].

For the molecule `O=C(Nc1cc(S(=O)(=O)N2CCOCC2)ccc1Cl)C1CCC1`, the AC50 under setting [1] is 29.1 µM [falling, single point].

Turning to `c1ccc(-c2cn3cccnc3n2)cc1`, the AC50 under setting [1] was 4.61 µM [rising, full curve, poor fit].

With `COc1ccc(N=Cc2c(O)c3ccccc3n2C(C)=O)cc1`, under setting [1], the AC50 is 0.891 µM [falling, partial curve].

For the molecule `COc1ccc(-c2nn(-c3ccccc3)cc2/C=N/N2C(=O)CSC2=S)cc1`, under setting [1], the AC50 is 0.517 µM [rising, full curve, poor fit].

Take `CCc1nc(SCC(=O)Nc2cc(OC)ccc2OC)c2c(C)c(C)sc2n1`: the AC50 under setting [1] was 7.94 µM [rising, partial curve, poor fit].

As to `CCCCc1nnc(NC(=O)CCS(=O)(=O)c2ccc(C)cc2)s1`, the AC50 under setting [1] is 7.31 µM [falling, partial curve].

For the molecule `O=S(=O)(Nc1nc2ccccc2s1)c1ccc(Cl)s1`, the AC50 under setting [1] is 0.82 µM [rising, full curve, poor fit].

For `COc1ccc(CC(=O)Oc2ccccc2C)cc1`, the AC50 under setting [1] was 31.6 µM [rising, single point].

As for `Cc1ccc(C2=NN(C(=O)CCl)C(c3ccco3)C2)o1` (stereo not given), the AC50 under setting [1] is 0.501 µM [falling, full curve, poor fit].

Consider `COc1cccc(N2C(=O)C(c3ccccc3)=C(c3nc4ccccc4s3)C2NC(C)=O)c1` (stereo not given), for which the AC50 under setting [1] was 18.4 µM [falling, single point].

`CN1/C(=C\C(=O)c2cccnc2)C(C)(C)c2ccccc21`: the AC50 under setting [1] was 5.8 µM [falling, partial curve, poor fit].

On to `CCOc1cc(/C=N/NC(=O)CCn2nnc3ccccc32)ccc1O`, for which the AC50 under setting [1] is 14.1 µM [falling, partial curve, poor fit].

As for `Cc1ccc(NC(=O)CSc2nc(=O)cc(N)n2CCc2ccccc2)cc1`, the AC50 under setting [1] was 5.62 µM [rising, single point].

For the molecule `CC1(C)CC(=O)C(/C=N/n2cnc3ccccc3c2=O)=C(O)C1`, under setting [1], the AC50 was 18.4 µM [rising, single point].

As to `COC(=O)Cn1c(=NC(=O)c2ccc(Cl)s2)sc2cc(C)ccc21`, the AC50 under setting [1] is 23.1 µM [falling, partial curve].

Regarding `Cc1ccc(/C=N/N2C(=O)c3ccccc3NC2c2ccc(C)cc2)cc1` (stereo not given), the AC50 under setting [1] is 4.11 µM [falling, full curve].

For the molecule `CC(C)(C)c1ccc(S(=O)(=O)N2CCC(O)(c3ccc(Cl)cc3)CC2)cc1`, the AC50 under setting [1] is 17.8 µM [falling, single point].

For the molecule `CCOC(=O)c1c(NC(=O)C(=O)N/N=C/c2ccc(O)c(OC)c2)sc2c1CCCCC2`, the AC50 under setting [1] is 18.4 µM [rising, single point].

On to `COc1ccc(/C=N/Nc2cc(C)nc3ccc(Br)cc23)cc1`, for which, under setting [1], the AC50 is 35.5 µM [falling, single point].

For `COc1ccc(NC(=O)c2ccc(S(=O)(=O)N(C)c3ccccc3)cc2)cn1`, under setting [1], the AC50 was 35.5 µM [falling, single point].

Take `CCCCOc1ccccc1NC(=O)c1scc2c1OCCO2`: the AC50 under setting [2] was 15.8 µM [rising, partial curve, poor fit].

Turning to `Cc1ccc2[nH]c(=O)c(COC(=O)C3CCCCC3)cc2c1`, the AC50 under setting [1] was 15.8 µM [rising, single point].

As for `CC1CC(C)CN(C(=O)CSCC(=O)Nc2nc(-c3cccs3)cs2)C1` (stereo not given), under setting [1], the AC50 is 18.4 µM [falling, single point].

Consider `Nc1ccc(C(=O)O)c(O)c1`, for which the AC50 under setting [1] is 0.00411 µM [rising, full curve, poor fit].

`NS(=O)(=O)c1ccc(CCNCc2cccnc2)cc1`: the AC50 under setting [1] is 5.62 µM [rising, partial curve, poor fit].
